Measured values as given in doi:10.1101/709485 (bioRxiv, 2019).
These are yes or no findings as the source states them, for the method shown. Some entries that bind do so weakly or less than the wild type.

By UniProt entry, the sequences of proteins in these tests, tags left out. Residues count along the entry.
UniProt O96017, residues 64-212: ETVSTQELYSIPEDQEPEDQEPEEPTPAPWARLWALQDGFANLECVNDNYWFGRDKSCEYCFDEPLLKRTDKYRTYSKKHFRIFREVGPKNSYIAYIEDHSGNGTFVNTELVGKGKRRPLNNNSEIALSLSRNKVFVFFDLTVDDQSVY
UniProt P08393, residues 55-74: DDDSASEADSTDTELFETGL

Molecular target: Chk2-FHA domain (aa:64-212) (UniProt O96017)
Assay: NMR titration

In the case of “ICP0-FBM peptide, phosphorylated at Thr67 (FHA Binding Motif, aa: 55-74) (from UniProt P08393 55-74)”, the binding is reported as “binds”.
